Test results taken from PubChem BioAssay AID2685 (National Center for Advancing Translational Sciences (NCATS), 2010).
The list shows a part of the results. These are further read-outs of the screen, such as a control signal, another cell line or another target. No call is given for them. The list favours compounds with an active or inconclusive main result. Potencies come from curve fits of mixed quality, noted in brackets.

Assay: qHTS Assay for Lipid Storage Modulators in Drosophila S3 Cells;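 on cell number change: cells counted by Cell Tracker Red CMTPX staining in the red channel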
Conditions: BODIPY lipid droplet fluorescence, 18-24 h; for cell number change: measured here: cell count max response, cells fed with added oleic acid
Summary of the method: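 Laser-scanning cytometry quantifies lipid droplet accumulation (500–530 nm total intensity; droplet/cell object ratio) in oleic acid-fed (400 uM added) Drosophila S3 cells treated with a concentration series. 20 uM Triacsin C defined 100% inhibition.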

[1] = measured here: lipid fluorescence (Fed channel) AC50, cells fed with added oleic acid
[2] = measured here: cell number channel AC50, cells fed with added oleic acid

SMILES | cell number change | AC50 [1] | AC50 [2]
CCCCCC(=O)OC(CN1CCCCCC1)CN1CCCC1=O (configuration not stated) | -28.5% | 6.51 µM [falling, partial curve, poor fit] | 
CCOc1ccc(NC(=O)c2ccc(S(=O)(=O)N3CCOCC3)cc2)cc1 | 21.8% | 29.1 µM [falling, single point] | 
COc1cccc(-c2cc(C(=O)Nn3cnnc3)c3ccccc3n2)c1 | 32.5% |  | 1.46 µM [rising, full curve]
CSc1cccc(NC(=O)c2nnn(Cc3ccccc3)c2N)c1 | 34.4% | 0.231 µM [rising, full curve, poor fit] | 
COc1cc(-c2nnc(SCC(=O)N(C)C3CCS(=O)(=O)C3)o2)cc(OC)c1OC (configuration not stated) | 35.5% |  | 
CCOc1ccccc1NC(=O)C(CC(C)C)NC(=O)C1CCC(C)CC1 (configuration not stated) |  | 29.1 µM [falling, single point] | 0.103 µM [rising, full curve, poor fit]
Cc1cccn2cc(-c3c[nH]c4ccccc34)nc12 | 0.823% |  | 0.13 µM [rising, single point]
COc1ccccc1NC(=O)c1ccc2nc(C)sc2c1 | -9.62% | 3.26 µM [falling, single point] | 
Cc1cc(C)c(S(=O)(=O)N2CCN(c3ccc([N+](=O)[O-])c(NCC4CCCO4)c3)CC2)c(C)c1 (configuration not stated) | -13.4% |  | 6.51 µM [falling, single point]
O=C(COc1ccccc1Cl)Nc1nnc(S(=O)(=O)N2CCCC2)s1 | 13.5% |  | 
N/C(=N\OC(=O)c1ccco1)c1ccc(Br)cc1 | 1.13% | 7.31 µM [falling, partial curve, poor fit] | 
Cc1ccccc1C(=O)NNC(=O)Nc1ccccc1 |  |  | 3.26 µM [rising, single point]
CCN(CC)CC(=O)Nc1ccc(Oc2ccc(NC(=O)CN(CC)CC)cc2)cc1 | 37.3% | 0.146 µM [falling, full curve] | 
CCCn1c(SCC(=O)NCC)nc2sc3c(c2c1=O)CCC3 | 15.3% | 3.26 µM [rising, single point] | 
C=CCCC1(C)C(=O)N(c2ccccc2)c2ccccc21 (configuration not stated) | 37.7% | 29.1 µM [rising, single point] | 29.1 µM [rising, single point]
CC(C)(C)OC(=O)NC1CCN(S(=O)(=O)c2ccc3c(c2)OCCO3)CC1 | -16.1% |  | 
CCOC(=O)/C(C#N)=C\c1ccc(N2CCN(C)CC2)cc1 | -29.1% | 29.1 µM [falling, single point] | 3.66 µM [falling, full curve, poor fit]
O=C(Nc1nnc(SCc2ccc(F)cc2)s1)c1cnccn1 | 94.2% | 20.6 µM [rising, partial curve] | 20.6 µM [rising, partial curve]
O=C(Nc1nccs1)c1ccc(S(=O)(=O)NCc2cccs2)cc1 | -33.9% | 4.11 µM [rising, single point] | 18.4 µM [falling, single point]

SMILES | cell number change | AC50 [1] | AC50 [2]
CCc1n[nH]c2c1/C(=N\O)CC(C)(C)C2 | 0.407% |  | 
C/C(=N\OC(=O)c1cccc(C(F)(F)F)c1)c1sc(-c2ccccc2)nc1C | -62.3% |  | 25.9 µM [falling, single point]
Cc1ccc(S(=O)(=O)N2CCC(C(=O)Nc3ccccc3N3CCCCC3)CC2)cc1 | -12.5% | 2.31 µM [rising, partial curve, poor fit] | 
Cc1nc(NCCc2ccccc2)c2nnn(Cc3ccccc3Cl)c2n1 | -28.3% | 6.51 µM [rising, single point] | 
CCCCN(C)Cc1c(C(=O)N2CCc3ccccc3C2)nc2ccc(Cl)cn12 | 12.4% | 0.13 µM [rising, full curve, poor fit] | 2.59 µM [rising, partial curve, poor fit]
CCN1CC2([N+](=O)[O-])C=CC(=O)C([N+](=O)[O-])(C1)C2CC(=O)c1ccccc1 (configuration not stated) | 18.7% | 29.1 µM [rising, single point] | 
COc1ccc(/C=C2\NC(=O)C(C=NCc3ccccc3)=C2O)cc1 | -42.1% | 29.1 µM [falling, single point] | 29.1 µM [falling, single point]
CCc1c(C)sc(NC(=O)c2cccs2)c1C(=O)OC(C)C | -9.2% | 0.92 µM [rising, full curve, poor fit] | 
O=C(CN1C(=O)S/C(=C\c2cccs2)C1=O)Nc1ccc(O)c(C(=O)O)c1 | -11.3% | 29.1 µM [rising, single point] | 
O=C(Oc1ccccc1)c1ccc2c(c1)C(=O)N(Cc1ccncc1)C2=O | -32.5% | 5.8 µM [falling, partial curve] | 3.26 µM [falling, full curve, poor fit]
O=C(O)c1ccccc1C(=O)N1N=C(c2ccccc2)CC1c1ccccc1O (configuration not stated) | 9.52% | 9.2 µM [rising, partial curve] | 
CCS(=O)(=O)c1ccc2oc(Nc3ccccc3Cl)nc2c1 | 26.9% |  | 
COc1cc(/C=C(\C#N)c2nc3ccccc3s2)ccc1OCC(=O)Nc1ccccc1 | 6.1% | 0.731 µM [rising, full curve, poor fit] | 
COc1ccccc1OCCCCN1CCN(C(c2ccccc2)c2ccccc2)CC1 | -36.1% | 29.1 µM [falling, single point] | 29.1 µM [falling, single point]
O=C(Nc1nccs1)c1ccc(Br)s1 |  | 0.651 µM [falling, partial curve, poor fit] | 
CC(C(=O)Nc1ccccc1-c1ccccc1)N1CCCCC1 (configuration not stated) | 77.4% | 0.82 µM [rising, full curve] | 23.1 µM [rising, partial curve, poor fit]
O=[N+]([O-])c1cccc(NC(=S)N2CCN(S(=O)(=O)c3ccccc3)CC2)c1 | 0.867% | 29.1 µM [falling, single point] | 
COCc1[nH]nc2c1C(c1ccc(OC)cc1)C(C#N)=C(N)O2 (configuration not stated) | 71.1% | 0.58 µM [falling, single point] | 29.1 µM [rising, single point]

A draw from above in order of molar mass, rising:
SMILES | cell number change | AC50 [1] | AC50 [2]
COc1ccccc1NC(=O)c1ccc2nc(C)sc2c1 | -9.62% | 3.26 µM [falling, single point] | 
CSc1cccc(NC(=O)c2nnn(Cc3ccccc3)c2N)c1 | 34.4% | 0.231 µM [rising, full curve, poor fit] | 
O=C(COc1ccccc1Cl)Nc1nnc(S(=O)(=O)N2CCCC2)s1 | 13.5% |  | 
